Values from PubChem BioAssay AID1259308 (NCATS, 2017)

- Aim: 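Knock-downs that increase output of a recombinant reporter protein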 (primary screen)
- Cells: human HEK293 embryonic kidney cells stably expressing firefly luciferase (HEK-CMV-Luc2-Hygro)
- Knock-down reagent: single siRNA against human genes, 0.8 pmol siRNA per well
- Time to read-out: 72 h
- Detection: 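Reporter luminescence and viable-cell signal on separate replicate plates, given as percent of non-targeting control and median/MAD z-scores, plus per-cell luciferase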
- Scale: total luciferase, z-score and total luciferase, % of control: higher = more reporter protein produced
- Hit rule: 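Active when the median/MAD z-score for overall luciferase is greater than 3; a gene was taken forward for validation with new siRNAs if at least two of its three siRNAs passed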
- Meaning of the calls: active = raised luciferase; inactive = no rise
The whole screen tested about 59,000 reagents; below is an unselected part. About 1,510 of all reagents (2.6%) count as active. 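Calls use total luciferase alone and ignore viability, so some active siRNAs may act by altering cell number.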 Reagents against one gene are numbered here. Further read-outs or replicates are left out here.

| gene knocked down | reagent | total luciferase, z-score | total luciferase, % of control | call |
| --- | --- | --- | --- | --- |
| NUF2 | 1 | 0.111 | 84.1 | inactive |
| NUF2 | 2 | -1.98 | 42.4 | inactive |
| NUF2 | 3 | 0.572 | 93.3 | inactive |
| SLC13A5 | 1 | 0.00689 | 82 | inactive |
| SLC13A5 | 2 | -0.281 | 76.3 | inactive |
| SLC13A5 | 3 | -0.933 | 63.3 | inactive |
| SEMA3C | 1 | 0.774 | 97.3 | inactive |
| SEMA3C | 2 | 0.354 | 88.9 | inactive |
| SEMA3C | 3 | 0.217 | 86.2 | inactive |
| LINC01100 | 1 | -1.77 | 46.8 | inactive |
| LINC01100 | 2 | 0.445 | 90.7 | inactive |
| LINC01100 | 3 | 0.255 | 87 | inactive |
| KIF15 | 1 | -0.299 | 75.9 | inactive |
| KIF15 | 2 | 0.567 | 93.2 | inactive |
| KIF15 | 3 | -1.22 | 57.5 | inactive |
| EFHD1 | 1 | 0.123 | 84.3 | inactive |
| EFHD1 | 2 | -0.302 | 75.9 | inactive |
| EFHD1 | 3 | 0.357 | 89 | inactive |
| SSX5 | 1 | 0.983 | 101 | inactive |
| SSX5 | 2 | -0.493 | 72.1 | inactive |
| SSX5 | 3 | 0.125 | 84.4 | inactive |
| UIMC1 | 1 | 0.406 | 90 | inactive |
| UIMC1 | 2 | 1.52 | 112 | inactive |
| UIMC1 | 3 | 0.0817 | 83.5 | inactive |
| MLF1 | 1 | 0.132 | 84.5 | inactive |
| MLF1 | 2 | -0.736 | 67.2 | inactive |
| MLF1 | 3 | 1.23 | 106 | inactive |
| PIKFYVE | 1 | 0.0218 | 82.3 | inactive |
| PIKFYVE | 2 | 1.32 | 108 | inactive |
| PIKFYVE | 3 | 1.73 | 116 | inactive |
| UBE3C | 1 | 1.24 | 107 | inactive |
| UBE3C | 2 | 0.38 | 89.4 | inactive |
| UBE3C | 3 | 1.34 | 108 | inactive |
| FLAD1 | 1 | -0.785 | 66.3 | inactive |
| FLAD1 | 2 | 0.169 | 85.3 | inactive |
| FLAD1 | 3 | -0.136 | 79.2 | inactive |
| CEP89 | 1 | -1.47 | 52.6 | inactive |
| CEP89 | 2 | 0.282 | 87.5 | inactive |
| CEP89 | 3 | -0.765 | 66.7 | inactive |
| ZNF829 | 1 | -1.46 | 52.9 | inactive |
| ZNF829 | 2 | 0.221 | 86.3 | inactive |
| ZNF829 | 3 | 1 | 102 | inactive |
| ORC1 | 1 | -0.683 | 68.3 | inactive |
| ORC1 | 2 | 1.46 | 111 | inactive |
| ORC1 | 3 | -0.629 | 69.4 | inactive |
| CMTM4 | 1 | 0.207 | 86 | inactive |
| CMTM4 | 2 | 0.848 | 98.7 | inactive |
| CMTM4 | 3 | 1.08 | 103 | inactive |
| ALG8 | 1 | 0.946 | 101 | inactive |
| ALG8 | 2 | -0.715 | 67.7 | inactive |
| ALG8 | 3 | -1.55 | 51 | inactive |
| USP40 | 1 | -0.434 | 73.3 | inactive |
| USP40 | 2 | -1.04 | 61.3 | inactive |
| USP40 | 3 | 0.193 | 85.7 | inactive |
| PRRX2 | 1 | -0.448 | 73 | inactive |
| PRRX2 | 2 | -1.47 | 52.7 | inactive |
| PRRX2 | 3 | 0.729 | 96.4 | inactive |

5 neighbouring reagents from above, for reference:
| gene knocked down | reagent | total luciferase, z-score | total luciferase, % of control | call |
| --- | --- | --- | --- | --- |
| ZNF829 | 2 | 0.221 | 86.3 | inactive |
| ZNF829 | 3 | 1 | 102 | inactive |
| ORC1 | 1 | -0.683 | 68.3 | inactive |
| ORC1 | 2 | 1.46 | 111 | inactive |
| ORC1 | 3 | -0.629 | 69.4 | inactive |
